PubChem BioAssay AID504804, Drosophila RNAi Screening Center | 2011

- Aim: 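Knock-downs shielding fly cells from apoptosis caused by DNA damage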 (primary screen)
- Cell system: Drosophila Kc cells
- Reagents: long dsRNA against Drosophila genes, 0.5 µg dsRNA per well
- Time to read-out: 96 h (48 h knock-down, then 48 h drug)
- Conditions: doxorubicin 5 µg/ml for 48 h, added 48 h after dsRNA
- Read-out: 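Luminescent ATP counts per replicate, not normalised, reflecting viable cells after 48 h dsRNA knock-down followed by 48 h of 5 µg/ml doxorubicin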
- Direction: raw ATP luminescence: higher = more viable cells, protection from doxorubicin
- Active means: 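Active when both duplicate wells lie at least 2 SD above the plate mean and protection is confirmed by rescreening and independent dsRNAs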
The screen tested about 19,000 reagents; below is an unselected part of those with a known target gene and a result. Of all reagents, 47 (0.25%) were called active. 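Signals are raw, not normalised; exact z-scores behind calls not deposited; actives needed confirmation, so some wells reaching 2 SD are inactive.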 Reagents against one gene are numbered here. A plus sign joins genes that one reagent is predicted to hit.

Tsp66E | raw ATP luminescence, replicate 1 = 79607; raw ATP luminescence, replicate 2 = 76940; Call = inactive
CG1271 | raw ATP luminescence, replicate 1 = 37707; raw ATP luminescence, replicate 2 = 47150; Call = inactive
CG13028 | raw ATP luminescence, replicate 1 = 95473; raw ATP luminescence, replicate 2 = 38497; Call = inactive
CG13078 | raw ATP luminescence, replicate 1 = 60143; raw ATP luminescence, replicate 2 = 52790; Call = inactive
sa | raw ATP luminescence, replicate 1 = 66823; raw ATP luminescence, replicate 2 = 56573; Call = inactive
Prp31 | raw ATP luminescence, replicate 1 = 30297; raw ATP luminescence, replicate 2 = 28557; Call = inactive
CG6788 | raw ATP luminescence, replicate 1 = 3.37e5; raw ATP luminescence, replicate 2 = 3.06e5; Call = inactive
CG18213 | raw ATP luminescence, replicate 1 = 80630; raw ATP luminescence, replicate 2 = 89510; Call = inactive
CG42568 + DnaJ-60 #1 | raw ATP luminescence, replicate 1 = 40343; raw ATP luminescence, replicate 2 = 48383; Call = inactive
CG42568 + DnaJ-60 #2 | raw ATP luminescence, replicate 1 = 75377; raw ATP luminescence, replicate 2 = 65570; Call = inactive
CG12448 | raw ATP luminescence, replicate 1 = 65600; raw ATP luminescence, replicate 2 = 74803; Call = inactive
Ets97D | raw ATP luminescence, replicate 1 = 51790; raw ATP luminescence, replicate 2 = 38440; Call = inactive
myd #1 | raw ATP luminescence, replicate 1 = 37503; raw ATP luminescence, replicate 2 = 32633; Call = inactive
myd #2 | raw ATP luminescence, replicate 1 = 62960; raw ATP luminescence, replicate 2 = 63600; Call = inactive
CG7423 | raw ATP luminescence, replicate 1 = 4.32e5; raw ATP luminescence, replicate 2 = 4.24e5; Call = inactive

4 entries already listed, sorted by “raw ATP luminescence, replicate 2”, low to high.
Prp31 | raw ATP luminescence, replicate 1 = 30297; raw ATP luminescence, replicate 2 = 28557; Call = inactive
CG13028 | raw ATP luminescence, replicate 1 = 95473; raw ATP luminescence, replicate 2 = 38497; Call = inactive
CG13078 | raw ATP luminescence, replicate 1 = 60143; raw ATP luminescence, replicate 2 = 52790; Call = inactive
sa | raw ATP luminescence, replicate 1 = 66823; raw ATP luminescence, replicate 2 = 56573; Call = inactive

The listing continues:
velo #1 | raw ATP luminescence, replicate 1 = 29770; raw ATP luminescence, replicate 2 = 42527; Call = inactive
velo #2 | raw ATP luminescence, replicate 1 = 35800; raw ATP luminescence, replicate 2 = 32157; Call = inactive
CysRS-m | raw ATP luminescence, replicate 1 = 66183; raw ATP luminescence, replicate 2 = 55777; Call = inactive
Pfdn5 | raw ATP luminescence, replicate 1 = 42517; raw ATP luminescence, replicate 2 = 53030; Call = inactive
Nnk | raw ATP luminescence, replicate 1 = 47860; raw ATP luminescence, replicate 2 = 39480; Call = inactive
CG9737 | raw ATP luminescence, replicate 1 = 43740; raw ATP luminescence, replicate 2 = 53010; Call = inactive
l(2)gl | raw ATP luminescence, replicate 1 = 1.85e5; raw ATP luminescence, replicate 2 = 2.28e5; Call = inactive
CG7409 | raw ATP luminescence, replicate 1 = 82203; raw ATP luminescence, replicate 2 = 77233; Call = inactive
CG4480 | raw ATP luminescence, replicate 1 = 59563; raw ATP luminescence, replicate 2 = 54340; Call = inactive
CG42521 | raw ATP luminescence, replicate 1 = 69687; raw ATP luminescence, replicate 2 = 61240; Call = inactive
Arfip | raw ATP luminescence, replicate 1 = 57900; raw ATP luminescence, replicate 2 = 28660; Call = inactive
Semp1 | raw ATP luminescence, replicate 1 = 64367; raw ATP luminescence, replicate 2 = 73303; Call = inactive
HtrA2 | raw ATP luminescence, replicate 1 = 76510; raw ATP luminescence, replicate 2 = 83950; Call = inactive
